Test results taken from US8771694 (IMMUNOMEDICS, dated 2014).
Positions count from the first letter of the chain named. No constants are given. Whether binding was seen depends on the method and setting. Some results given as binding are weak or reduced against the parent protein; the word gives no strength.

By UniProt entry, the sequences of proteins in these tests, tags left out. Residues count along the entry.
UniProt P20273, residues 20-847: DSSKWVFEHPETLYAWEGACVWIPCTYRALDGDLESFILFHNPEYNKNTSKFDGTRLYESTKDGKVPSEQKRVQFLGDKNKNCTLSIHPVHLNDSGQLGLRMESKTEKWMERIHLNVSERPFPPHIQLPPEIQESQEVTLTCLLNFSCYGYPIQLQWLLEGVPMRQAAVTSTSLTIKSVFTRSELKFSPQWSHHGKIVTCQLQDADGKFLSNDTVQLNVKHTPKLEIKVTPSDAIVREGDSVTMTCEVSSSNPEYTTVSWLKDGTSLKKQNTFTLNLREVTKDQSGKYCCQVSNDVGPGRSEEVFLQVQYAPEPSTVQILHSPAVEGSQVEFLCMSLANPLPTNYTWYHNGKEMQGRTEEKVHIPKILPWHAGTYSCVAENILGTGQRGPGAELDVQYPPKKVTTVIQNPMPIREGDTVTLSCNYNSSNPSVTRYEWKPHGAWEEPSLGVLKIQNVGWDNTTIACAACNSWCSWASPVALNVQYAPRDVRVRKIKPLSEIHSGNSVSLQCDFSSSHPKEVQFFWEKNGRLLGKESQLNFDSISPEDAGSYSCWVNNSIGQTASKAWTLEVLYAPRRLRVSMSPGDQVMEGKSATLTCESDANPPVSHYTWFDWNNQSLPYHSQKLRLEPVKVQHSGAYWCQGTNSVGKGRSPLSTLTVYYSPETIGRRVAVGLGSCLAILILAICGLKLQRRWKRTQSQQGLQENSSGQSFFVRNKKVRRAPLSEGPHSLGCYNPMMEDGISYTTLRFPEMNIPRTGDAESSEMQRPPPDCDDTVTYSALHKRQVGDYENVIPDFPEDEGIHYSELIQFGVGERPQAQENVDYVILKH

B1: mix-and-match LL2 with a humanized light and chimeric heavy chain (antibody, IgG1, V domains shown)
VH: QVQLQESGAELSKPGASVKMSCKASGYTFTSYWLHWIKQRPGQGLEWIGYINPRNDYTEYNQNFKDKATLTADKSSSTAYMQLSSLTSEDSAVYYCARRDITTFYWGQGTTLTVSS
VL: DIQLTQSPSSLSASVGDRVTMSCKSSQSVLYSANHKNYLAWYQQKPGKAPKLLIYWASTRESGVPSRFSGSGSGTDFTFTISSLQPEDIATYYCHQYLSSWTFGGGTKVQIKR
B2: mix-and-match LL2 with chimeric light and humanized heavy (version 1) chains (antibody, IgG1, V domains shown)
VH: QVQLQQSGAEVKKPGSSVKVSCKASGYTFTSYWLHWVRQAPGQGLEWIGYINPRNDYTEYNQNFKDKATITADESTNTAYMELSSLRSEDTAFYFCARRDITTFYWGQGTTVTVSS
VL: DIQLTQSPSSLAVSAGENVTMSCKSSQSVLYSANHKNYLAWYQQKPGQSPKLLIYWASTRESGVPDRFTGSGSGTDFTLTISRVQVEDLAIYYCHQYLSSWTFGGGTKLEIKR
modifications: N-linked carbohydrate at the Asn-Val-Thr site, positions 18-20 of VK FR1
B3: mix-and-match LL2 with chimeric light and humanized heavy (version 2) chains (antibody, IgG1, V domains shown)
VH: B2 VH with Q5V
VL: B2 VL
modifications: N-linked carbohydrate at the Asn-Val-Thr site, positions 18-20 of VK FR1

Target: CD22 (LL2 antigen on the surface of Raji cells) (UniProt P20273)
Assay: competition flow cytometry on Raji cells, competitor mLL2 F(ab')2

Row | Binder | binding
1 | B1 | binds
2 | B2 | binds
3 | B3 | binds
